Test results published in US12180155B2, “Crystalline forms of a cannabinoid receptor type 1 (CB1) modulator and methods of use and preparation thereof” (Anebulo Pharmaceuticals, Inc., priority 2021, dated 2024).
Some entries share one result that the patent states for a list of compounds.

Assay: Temperature dependent solubility in heptane (Crystal16, clear points)
Type: physicochemical
Details: from competitive slurries and temperature dependent solubility
Experimental: Temperature dependent solubility experiment was performed on Crystalline Form I and Crystalline Form II of Compound 1, and data was generated by Crystal16 equipment using heptane as solvent. Slurries with accurate amounts of solid in heptane were prepared, equilibrated at 20° C. for 5 minutes then heated to 70° C. at a rate of 5° C./min, and the turbidity of the suspensions were measured. Clear points of the solutions were determined and solubility vs. temperature curves (Arrhenius plots: ln[conc.] vs. 1/T [° K]) were obtained, as shown in FIG. 9.

Q: Which “transition temperature (enantiotropic relationship Form I / Form II)” value does the source give for `CC(C)(C)NC(=O)N1CC(O[C@H](c2ccc(Cl)cc2)c2ccccc2C(F)(F)F)C1` [Crystalline Form I, (R)—N-(tert-butyl)-3-((4-chlorophenyl)(2-(trifluoromethyl)phenyl)methoxy)azetidine-1-carboxamide] here?
A: 39-40 °C

Q: Which “transition temperature (enantiotropic relationship Form I / Form II)” value does the source give for `CC(C)(C)NC(=O)N1CC(O[C@H](c2ccc(Cl)cc2)c2ccccc2C(F)(F)F)C1` [Crystalline Form II, (R)—N-(tert-butyl)-3-((4-chlorophenyl)(2-(trifluoromethyl)phenyl)methoxy)azetidine-1-carboxamide] here?
A: 39-40 °C
